{"source": "PubChem BioAssay AID504804 (Drosophila RNAi Screening Center, 2011)", "test": "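Knock-downs shielding fly cells from apoptosis caused by DNA damage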 (primary screen)", "system": "Drosophila Kc cells", "knock-down reagent": "long dsRNA against Drosophila genes, 0.5 µg dsRNA per well", "timing": "96 h (48 h knock-down, then 48 h drug)", "treatment": "doxorubicin 5 µg/ml for 48 h, added 48 h after dsRNA", "detection": "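Viability measured as cellular ATP by luminescence after 48 h knock-down then 48 h doxorubicin at 5 µg/ml; unnormalised plate counts for each replicate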", "direction": "raw ATP luminescence: higher = more viable cells, protection from doxorubicin", "active means": "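z-score of 2 or more over plate mean in both duplicates, retained only when retests and separate dsRNAs confirm the protection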", "note": "In all, the deposit lists about 19,000 reagents; shown is an unselected part of those with a known target gene and a result. In the full data, 47 (0.25%) were called active. 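Signals are raw, not normalised; exact z-scores behind calls not deposited; actives needed confirmation, so some wells reaching 2 SD are inactive.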 Reagents against one gene are numbered here. Names joined by + are all predicted targets of the reagent."}
{"gene": "CG4709 (GeneID 34324)", "reagent": 1, "raw ATP luminescence, replicate 1": 82987, "raw ATP luminescence, replicate 2": 52803, "Call": "inactive"}
{"gene": "CG4660 (GeneID 31542)", "reagent": 1, "raw ATP luminescence, replicate 1": 60870, "raw ATP luminescence, replicate 2": 50290, "Call": "inactive"}
{"gene": "CG5078 (GeneID 40276)", "reagent": 1, "raw ATP luminescence, replicate 1": 71277, "raw ATP luminescence, replicate 2": 71393, "Call": "inactive"}
{"gene": "ppk16 (GeneID 3885612)", "reagent": 1, "raw ATP luminescence, replicate 1": 35520, "raw ATP luminescence, replicate 2": 74427, "Call": "inactive"}
{"gene": "bib (GeneID 34330)", "reagent": 1, "raw ATP luminescence, replicate 1": 97467, "raw ATP luminescence, replicate 2": 80290, "Call": "inactive"}
{"gene": "CG11656 (GeneID 41600)", "reagent": 1, "raw ATP luminescence, replicate 1": 38037, "raw ATP luminescence, replicate 2": 18837, "Call": "inactive"}
{"gene": "BubR1 (GeneID 35522)", "reagent": 1, "raw ATP luminescence, replicate 1": 58897, "raw ATP luminescence, replicate 2": 48753, "Call": "inactive"}
{"gene": "CG3919 (GeneID 39582)", "reagent": 1, "raw ATP luminescence, replicate 1": 24743, "raw ATP luminescence, replicate 2": 17967, "Call": "inactive"}
{"gene": "CG13538 (GeneID 37667)", "reagent": 1, "raw ATP luminescence, replicate 1": 71853, "raw ATP luminescence, replicate 2": 49713, "Call": "inactive"}
{"gene": "lectin-37Db (GeneID 3346221)", "reagent": 1, "raw ATP luminescence, replicate 1": 69707, "raw ATP luminescence, replicate 2": 59917, "Call": "inactive"}
{"gene": "GluRIB + CG42509 (retired record)", "reagent": 1, "raw ATP luminescence, replicate 1": 59573, "raw ATP luminescence, replicate 2": 62837, "Call": "inactive"}
{"gene": "GluRIB + CG42509 (retired record)", "reagent": 2, "raw ATP luminescence, replicate 1": 70747, "raw ATP luminescence, replicate 2": 54520, "Call": "inactive"}
{"gene": "Mtr4 (GeneID 48782)", "reagent": 1, "raw ATP luminescence, replicate 1": 81340, "raw ATP luminescence, replicate 2": 60797, "Call": "inactive"}
{"gene": "CG4945 (GeneID 36850)", "reagent": 1, "raw ATP luminescence, replicate 1": 44343, "raw ATP luminescence, replicate 2": 61313, "Call": "inactive"}
{"gene": "ave (GeneID 246638)", "reagent": 1, "raw ATP luminescence, replicate 1": 53053, "raw ATP luminescence, replicate 2": 89080, "Call": "inactive"}
{"gene": "Cpr92A (GeneID 42333)", "reagent": 1, "raw ATP luminescence, replicate 1": 70880, "raw ATP luminescence, replicate 2": 88840, "Call": "inactive"}
{"gene": "CG9757 (GeneID 41662)", "reagent": 1, "raw ATP luminescence, replicate 1": 75910, "raw ATP luminescence, replicate 2": 97350, "Call": "inactive"}
{"gene": "CG4229 (GeneID 39840)", "reagent": 1, "raw ATP luminescence, replicate 1": 23873, "raw ATP luminescence, replicate 2": 19863, "Call": "inactive"}
{"gene": "CG31229 (GeneID 318636)", "reagent": 1, "raw ATP luminescence, replicate 1": 1.42e5, "raw ATP luminescence, replicate 2": 1.35e5, "Call": "inactive"}
{"gene": "CG9016 (GeneID 33822)", "reagent": 1, "raw ATP luminescence, replicate 1": 30680, "raw ATP luminescence, replicate 2": 41777, "Call": "inactive"}
{"gene": "CG15022 (GeneID 38549)", "reagent": 1, "raw ATP luminescence, replicate 1": 71267, "raw ATP luminescence, replicate 2": 77987, "Call": "inactive"}
{"gene": "CG5888 (GeneID 34980)", "reagent": 1, "raw ATP luminescence, replicate 1": 96063, "raw ATP luminescence, replicate 2": 64773, "Call": "inactive"}
{"gene": "corto (GeneID 40616)", "reagent": 1, "raw ATP luminescence, replicate 1": 51420, "raw ATP luminescence, replicate 2": 41760, "Call": "inactive"}
{"gene": "ry (GeneID 41605)", "reagent": 1, "raw ATP luminescence, replicate 1": 45730, "raw ATP luminescence, replicate 2": 21253, "Call": "inactive"}
{"gene": "cno (GeneID 40620)", "reagent": 1, "raw ATP luminescence, replicate 1": 59990, "raw ATP luminescence, replicate 2": 53280, "Call": "inactive"}
{"gene": "cno (GeneID 40620)", "reagent": 2, "raw ATP luminescence, replicate 1": 15537, "raw ATP luminescence, replicate 2": 14680, "Call": "inactive"}
{"gene": "Ipp (GeneID 41701)", "reagent": 1, "raw ATP luminescence, replicate 1": 1.51e5, "raw ATP luminescence, replicate 2": 88530, "Call": "inactive"}
{"gene": "mRpL32 (GeneID 43698)", "reagent": 1, "raw ATP luminescence, replicate 1": 49780, "raw ATP luminescence, replicate 2": 67440, "Call": "inactive"}
{"gene": "PGS1 (GeneID 42254)", "reagent": 1, "raw ATP luminescence, replicate 1": 51790, "raw ATP luminescence, replicate 2": 51950, "Call": "inactive"}
{"gene": "asp (GeneID 42946)", "reagent": 1, "raw ATP luminescence, replicate 1": 36090, "raw ATP luminescence, replicate 2": 39993, "Call": "inactive"}
{"gene": "alpha-Est2 (GeneID 40908)", "reagent": 1, "raw ATP luminescence, replicate 1": 57197, "raw ATP luminescence, replicate 2": 59920, "Call": "inactive"}
{"gene": "CG11929 (GeneID 33668)", "reagent": 1, "raw ATP luminescence, replicate 1": 22220, "raw ATP luminescence, replicate 2": 30863, "Call": "inactive"}
{"gene": "Obp69a (GeneID 39411)", "reagent": 1, "raw ATP luminescence, replicate 1": 59967, "raw ATP luminescence, replicate 2": 67350, "Call": "inactive"}
{"gene": "CG18449 (GeneID 35810)", "reagent": 1, "raw ATP luminescence, replicate 1": 61800, "raw ATP luminescence, replicate 2": 82573, "Call": "inactive"}
{"gene": "serp (GeneID 40150)", "reagent": 1, "raw ATP luminescence, replicate 1": 70617, "raw ATP luminescence, replicate 2": 62487, "Call": "inactive"}
{"gene": "serp (GeneID 40150)", "reagent": 2, "raw ATP luminescence, replicate 1": 82883, "raw ATP luminescence, replicate 2": 72120, "Call": "inactive"}
